Measured values from patent US7282515B2, “Derivatives of azaspiro compounds for the treatment of pain” (Schwarz Pharma AG, priority 2002, dated 2007).

Tested on: NMRI mice
Experiment: formalin test (in-vivo test for analgesic effectiveness)
Conditions: 8 mg/kg, Average of 9 test series
Description: FIG. 1 and Table 1 show the reaction of test animals 20-45 minutes after the intraperitoneal administration of selected compounds. In each case, the maximum dosage selected for the concentration of azaspiro compounds was held, by a factor of about 2, below the toxic dose previously determined in the IRWIN test (Irwin, Psychopharmacologia 13 (1968) 222).
For the purpose of this patent application, the term “mean deviation of the pain reaction” refers to a relative deviation that is obtained when the average time of pain reaction of 10 animals treated with active agents in a test series as described in implementation Example #7 is compared, over a defined period (20-25′, 30-35′ or 40-45′ after formalin injection), with the average time of the pain reaction of 10 control animals treated with an excipient. A reduction in the pain reaction is expressed in negative percentage figures.
1. In-vivo Test for Determining the Analgesic Effectiveness of the Azaspiro Compounds
The test was conducted as described by Wheeler-Aceto (Psychopharmacology 104, 1991, 35).
NMRI mice having a weight of 20-25 g were kept under controlled conditions (22±2° C., 40-70% relative humidity). 25 μl of a 5% formocarbonyl solution was injected in the hind leg and the leg-licking frequency was then clocked for 5 minutes each at defined intervals (20, 30, 40 minutes).
Next, for the formalin test, the test substances were dissolved in a physiological salt solution with 0.5% sodium carboxymethyl cellulose and were each measured in 1-3 dosages that had been applied intraperitoneally 10 minutes before administration of formalin. The comparative reference value was provided by a control excipient (10 ml/kg).
The test was performed in blind fashion on 10 mice per test series. The evaluation was based on a comparison of the treated animals with control excipients at three different times. […] The statistical significance was determined using the Mann-Whitney U-test.

CN1CC[C@]23c4c5ccc(O)c4O[C@H]2[C@@H](O)C=C[C@H]3[C@H]1C5 [Morphine, reference compound]
Mean deviation of the pain reaction compared to control (%) 20–25′ after administration of formalin (20–25′): −87% | Mean deviation of the pain reaction compared to control (%) 30–35′ after administration of formalin (30–35′): −95% | Mean deviation of the pain reaction compared to control (%) 40–45′ after administration of formalin (40–45′): −88%
